Results deposited as PubChem BioAssay AID1671195 (Yale University, 2021).
Screen: 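Knockdowns that increase or decrease uptake of fluorescent LDL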 (primary screen). Cells: human Huh7 hepatoma cells. Knock-down reagent: siRNA pool against human genes, 18 nM. Duration: about 2 to 2.5 days of knockdown, then 8 h LDL uptake. Challenge: DiI-labelled LDL at 30 µg/ml for 8 h, in lipoprotein-deficient serum medium. Read-out: 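Per-cell DiI-LDL intensity by automated imaging; well means scaled to the plate median and given as a robust z-score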. Direction: robust z-score: higher = more LDL uptake after knockdown. Rule for the call: 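a gene counts as active if at least two replicate z-scores exceed ±2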.
This is an unselected part of about 22,000 reagents. Over the whole deposit, about 1,510 (6.9%) got an active call. 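Active includes knockdowns raising or lowering LDL uptake; positive z-scores mean more uptake, negative mean less.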 A number with no mark means an inactive call.

no.	gene	robust z-score, replicate 1	robust z-score, replicate 2	robust z-score, replicate 3
1	PEX12	-1.54	-1.09	-1.15
2	CARD14	-1.15	-1.4	-1.54
3	BCL2L10	1.61	1.3	0.684
4	PKD1L2	2.53 (active)	2.74	2.44
5	PSMD8	1.09	1.08	0.298
6	PGLYRP2	0.454	-0.398	-0.309
7	LOC391014 (retired record)	0.892	0.751	0.634
8	GARIN1B	0.701	0.424	0.763
9	MZT1	-1.69	-1.8	-2.17
10	DDX53	-0.433	-0.236	-0.545
11	C4BPB	-0.0798	-0.815	0.334
12	METTL16	0.0823	-0.274	-0.016
13	LINC01599	-0.285	0.138	-0.29
14	SENP1	0.9	1.49	0.908
15	TATDN1	0.348	0.706	0.818
16	LINC01521	-0.667	-0.00361	-1.39
17	LYAR	2.32	-0.745	1.09

Entries listed above marked active:
gene	robust z-score, replicate 1	robust z-score, replicate 2	robust z-score, replicate 3
PKD1L2	2.53 (active)	2.74	2.44

Additional entries:
no.	gene	robust z-score, replicate 1	robust z-score, replicate 2	robust z-score, replicate 3
18	LOC440971 (retired record)	2.15	1.86	1.97
19	RGS2	-0.23	0.393	-2.42
20	KLHL7	-1.54 (active)	-2.47	-2.13
21	RPL14	-2.04 (active)	-0.504	-2.18
22	CRYGB	-0.723	-0.918	-0.0845
23	DAB2IP	0.776	0.607	0.454
24	GPRASP1	-0.176	0.00765	-1.9
25	BAALC	2.4	1.81	1.45
26	EYA1	1.23	1.17	0.312
27	ZNF691	0.475	-0.0147	0.0891
28	OPA1	-0.932	-0.259	-0.758
